No constants are given. Whether binding was seen depends on the method and setting. In cells and extracts the contact can be indirect. These calls come from enrichment with a bait or labelling near it, and not all partners need be listed.

By UniProt entry, the sequences of proteins in these tests, tags left out.
UniProt Q05639: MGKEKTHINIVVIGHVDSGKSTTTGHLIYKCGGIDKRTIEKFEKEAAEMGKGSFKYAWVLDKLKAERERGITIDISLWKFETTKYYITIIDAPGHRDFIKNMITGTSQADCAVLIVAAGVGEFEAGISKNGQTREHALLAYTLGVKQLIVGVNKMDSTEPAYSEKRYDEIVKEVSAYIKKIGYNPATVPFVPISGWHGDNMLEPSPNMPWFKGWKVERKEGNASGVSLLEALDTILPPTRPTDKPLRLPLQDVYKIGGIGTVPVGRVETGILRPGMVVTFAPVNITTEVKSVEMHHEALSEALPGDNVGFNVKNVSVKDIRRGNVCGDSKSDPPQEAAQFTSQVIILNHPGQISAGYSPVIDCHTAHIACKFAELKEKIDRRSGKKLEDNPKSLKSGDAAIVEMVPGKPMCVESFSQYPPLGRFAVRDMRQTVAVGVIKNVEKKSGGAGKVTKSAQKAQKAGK
UniProt P08238: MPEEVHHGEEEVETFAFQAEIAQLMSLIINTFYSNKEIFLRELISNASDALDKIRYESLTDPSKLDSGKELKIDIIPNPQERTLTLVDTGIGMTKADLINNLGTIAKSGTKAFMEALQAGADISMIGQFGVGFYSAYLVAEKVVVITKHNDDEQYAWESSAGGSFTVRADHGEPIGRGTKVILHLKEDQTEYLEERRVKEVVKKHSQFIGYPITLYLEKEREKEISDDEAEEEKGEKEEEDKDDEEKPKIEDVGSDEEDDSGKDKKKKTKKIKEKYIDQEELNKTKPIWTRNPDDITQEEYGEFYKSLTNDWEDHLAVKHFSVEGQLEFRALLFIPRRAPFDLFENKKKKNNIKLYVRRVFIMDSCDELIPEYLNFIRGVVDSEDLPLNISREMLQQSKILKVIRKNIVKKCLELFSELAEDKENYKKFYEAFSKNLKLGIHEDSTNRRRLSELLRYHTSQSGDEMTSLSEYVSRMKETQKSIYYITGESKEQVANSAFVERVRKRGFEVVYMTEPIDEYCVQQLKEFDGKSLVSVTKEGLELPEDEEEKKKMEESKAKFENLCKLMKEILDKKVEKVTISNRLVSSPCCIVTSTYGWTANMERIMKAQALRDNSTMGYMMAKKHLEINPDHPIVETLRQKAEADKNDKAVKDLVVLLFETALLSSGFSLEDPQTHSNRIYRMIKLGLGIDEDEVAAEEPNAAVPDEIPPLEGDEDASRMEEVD
UniProt P26641: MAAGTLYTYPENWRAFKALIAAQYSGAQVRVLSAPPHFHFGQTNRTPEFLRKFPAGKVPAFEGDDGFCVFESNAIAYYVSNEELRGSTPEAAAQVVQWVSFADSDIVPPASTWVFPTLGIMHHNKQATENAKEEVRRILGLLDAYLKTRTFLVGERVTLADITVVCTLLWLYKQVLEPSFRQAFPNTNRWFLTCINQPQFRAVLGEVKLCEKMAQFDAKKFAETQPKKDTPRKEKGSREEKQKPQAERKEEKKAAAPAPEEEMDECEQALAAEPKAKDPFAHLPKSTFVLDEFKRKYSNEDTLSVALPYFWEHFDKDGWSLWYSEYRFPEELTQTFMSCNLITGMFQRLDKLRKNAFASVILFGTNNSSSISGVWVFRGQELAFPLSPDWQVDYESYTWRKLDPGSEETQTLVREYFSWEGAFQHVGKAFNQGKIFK
UniProt P12956: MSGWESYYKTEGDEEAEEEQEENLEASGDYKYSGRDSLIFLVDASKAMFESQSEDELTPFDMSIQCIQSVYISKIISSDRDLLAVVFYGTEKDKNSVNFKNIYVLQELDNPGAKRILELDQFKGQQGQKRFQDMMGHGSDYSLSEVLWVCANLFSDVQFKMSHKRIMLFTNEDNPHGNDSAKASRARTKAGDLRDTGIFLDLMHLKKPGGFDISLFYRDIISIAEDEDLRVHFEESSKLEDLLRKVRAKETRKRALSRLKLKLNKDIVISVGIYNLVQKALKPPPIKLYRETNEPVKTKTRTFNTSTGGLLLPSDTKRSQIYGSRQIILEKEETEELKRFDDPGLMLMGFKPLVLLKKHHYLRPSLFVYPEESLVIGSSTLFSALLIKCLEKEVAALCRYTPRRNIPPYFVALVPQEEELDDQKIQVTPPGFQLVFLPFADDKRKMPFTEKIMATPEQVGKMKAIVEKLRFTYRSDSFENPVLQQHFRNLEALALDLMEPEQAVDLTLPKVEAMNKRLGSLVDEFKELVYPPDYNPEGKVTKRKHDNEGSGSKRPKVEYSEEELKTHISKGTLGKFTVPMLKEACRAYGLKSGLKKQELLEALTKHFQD

The assay addresses Flag-EEF1A2 (eukaryotic protein translation elongation factor 1α2) (UniProt Q05639). The experiment in a line: affinity purification with mass spectrometry; Flag-EEF1A2 transfected; lysate immunoprecipitated with anti-Flag agarose, SDS-PAGE, Coomassie staining, LC-MS/MS; A549 and PC9 cells by the text, 293T cells by the legend of Fig. 5a.

In the case of HSP90AB1 (from UniProt P08238 1-724), the binding entry is given as “binds”. As for EEF1G (from UniProt P26641 1-437), the binding result is on record as “binds”. XRCC6 (from UniProt P12956 1-609): the binding result was “binds”.

B1: EEF1B2 (protein, UniProt P24534 1-225)
chain: MGFGDLKSPAGLQVLNDYLADKSYIEGYVPSQADVAVFEAVSSPPPADLCHALRWYNHIKSYEKEKASLPGVKKALGKYGPADVEDTTGSGATDSKDDDDIDLFGSDDEEESEEAKRLREERLAQYESKKAKKPALVAKSSILLDVKPWDDETDMAKLEECVRSIQADGLVWGSSKLVPVGYGIKKLQIQCVVEDDKVGTDMLEEQITAFEDYVQSMDVAAFNKI
For B1, the binding entry is reported as “binds”.

Values taken from article PMC8007567.
